The experiment addresses T1, DEK (human (endogenous in U2-OS)) (UniProt P35659).
T1 sequence: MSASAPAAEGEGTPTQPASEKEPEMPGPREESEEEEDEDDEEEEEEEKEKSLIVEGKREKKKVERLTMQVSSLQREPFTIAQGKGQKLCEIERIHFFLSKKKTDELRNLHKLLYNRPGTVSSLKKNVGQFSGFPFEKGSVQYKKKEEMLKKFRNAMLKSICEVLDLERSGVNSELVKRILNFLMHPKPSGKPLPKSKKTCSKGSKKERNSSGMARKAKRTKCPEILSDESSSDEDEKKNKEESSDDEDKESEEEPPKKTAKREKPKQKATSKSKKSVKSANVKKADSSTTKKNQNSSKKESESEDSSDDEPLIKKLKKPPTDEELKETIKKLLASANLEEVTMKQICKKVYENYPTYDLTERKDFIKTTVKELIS
The experiment can be described thus: co-IP; U2-OS lysates (hypotonic buffer, 450 mM NaCl, 0.5% NP-40, 10 mM NEM); polyclonal rabbit anti-DEK K-877 with Protein A/G Plus-Agarose; washes with 450 mM NaCl; rabbit IgG isotype control; immunoblot for SUMO1 and SUMO2/3. (A western blot detects proteins with antibodies after separation by electrophoresis.)

The chains behind the UniProt entries cited, without tags or fusion partners. Residues count along the entry.
UniProt P63165, residues 1-97: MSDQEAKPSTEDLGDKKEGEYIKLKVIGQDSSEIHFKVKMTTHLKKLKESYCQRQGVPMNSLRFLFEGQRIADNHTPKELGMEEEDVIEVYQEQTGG

These are yes or no findings as the source states them, for the method shown. In cells and extracts the contact can be indirect. Some entries that bind do so weakly or less than the wild type.

On to “small ubiquitin-related modifier 1 (from UniProt P63165 1-97)”, for which the binding entry is “binds”.

For the origin of these results see PMC10753498.
